The target of the test is NLRP3 (mouse (endogenous in primary cortical astrocytes)) (UniProt Q8R4B8). The test can be described thus: co-IP; pre-cleared lysates of primary astrocytes, untreated or treated 24 h with LPS, ATP or ethanol (10, 50 mM); mouse anti-NLRP3 antibody covalently immobilised on agarose (Pierce Co-IP kit); eluate blotted with anti-caspase-1; mouse IgG as negative control.

Chains of the proteins cited; added tags and fusions are not shown.
UniProt Q8R4B8: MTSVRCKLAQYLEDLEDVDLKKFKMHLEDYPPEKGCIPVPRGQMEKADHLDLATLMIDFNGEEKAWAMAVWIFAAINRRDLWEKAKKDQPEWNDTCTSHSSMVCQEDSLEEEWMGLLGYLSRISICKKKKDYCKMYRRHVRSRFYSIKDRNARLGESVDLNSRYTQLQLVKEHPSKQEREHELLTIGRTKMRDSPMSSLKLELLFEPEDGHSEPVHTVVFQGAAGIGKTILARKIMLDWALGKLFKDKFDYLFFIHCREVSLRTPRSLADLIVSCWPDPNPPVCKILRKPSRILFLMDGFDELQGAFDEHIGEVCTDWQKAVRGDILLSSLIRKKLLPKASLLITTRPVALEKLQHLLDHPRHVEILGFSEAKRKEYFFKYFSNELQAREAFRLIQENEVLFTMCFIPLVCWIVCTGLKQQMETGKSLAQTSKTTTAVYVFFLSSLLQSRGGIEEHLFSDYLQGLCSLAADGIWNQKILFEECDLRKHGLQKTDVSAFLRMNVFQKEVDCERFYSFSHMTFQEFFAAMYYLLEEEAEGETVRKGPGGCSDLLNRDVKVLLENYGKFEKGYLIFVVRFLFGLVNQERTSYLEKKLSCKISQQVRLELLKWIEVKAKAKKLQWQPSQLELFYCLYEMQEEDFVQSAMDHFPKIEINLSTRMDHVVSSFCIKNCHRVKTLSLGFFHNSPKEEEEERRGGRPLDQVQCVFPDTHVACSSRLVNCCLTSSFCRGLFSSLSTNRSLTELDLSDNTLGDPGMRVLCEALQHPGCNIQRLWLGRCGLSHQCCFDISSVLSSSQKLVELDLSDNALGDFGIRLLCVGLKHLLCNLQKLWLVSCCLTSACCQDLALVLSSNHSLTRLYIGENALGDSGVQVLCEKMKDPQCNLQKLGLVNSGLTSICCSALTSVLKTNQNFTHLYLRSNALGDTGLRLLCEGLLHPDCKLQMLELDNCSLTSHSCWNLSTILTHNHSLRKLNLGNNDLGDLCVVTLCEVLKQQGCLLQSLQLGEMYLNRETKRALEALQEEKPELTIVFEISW

No constants are given. Whether binding was seen depends on the method and setting. Binding seen in cells or lysates may run through a third protein. Some binding calls cover weakened binding; strength is not graded here.

The record followed here is paper PMC4118026.

B1: p45 caspase-1 precursor (enzyme, UniProt P29452 1-402)
chain: MADKILRAKRKQFINSVSIGTINGLLDELLEKRVLNQEEMDKIKLANITAMDKARDLCDHVSKKGPQASQIFITYICNEDCYLAGILELQSAPSAETFVATEDSKGGHPSSSETKEEQNKEDGTFPGLTGTLKFCPLEKAQKLWKENPSEIYPIMNTTTRTRLALIICNTEFQHLSPRVGAQVDLREMKLLLEDLGYTVKVKENLTALEMVKEVKEFAACPEHKTSDSTFLVFMSHGIQEGICGTTYSNEVSDILKVDTIFQMMNTLKCPSLKDKPKVIIIQACRGEKQGVVLLKDSVRDSEEDFLTDAIFEDDGIKKAHIEKDFIAFCSSTPDNVSWRHPVRGSLFIESLIKHMKEYAWSCDLEDIFRKVRFSFEQPEFRLQMPTADRVTLTKRFYLFPGH
As to B1, the binding entry is “binds”.
